Results reported in publication PMC12292469.
These are yes or no findings as the source states them, for the method shown. Binding seen in cells or lysates may run through a third protein. Some results given as binding are weak or reduced against the parent protein; the word gives no strength. Where a sequence is shown, tags or fusion partners need not be part of it.

Target: T1, calcineurin B homologous protein isoform 1 (CHP1), FLAG-tagged (human) (UniProt Q99653)
T1 sequence: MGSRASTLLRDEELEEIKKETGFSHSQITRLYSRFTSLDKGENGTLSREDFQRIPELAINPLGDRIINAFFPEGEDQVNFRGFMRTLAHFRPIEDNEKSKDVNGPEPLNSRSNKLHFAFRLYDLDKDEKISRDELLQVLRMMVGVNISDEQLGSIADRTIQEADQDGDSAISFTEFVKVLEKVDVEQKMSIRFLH
Test: co-IP; HEK293T cells transfected with FLAG-CHP1, lysed 48 h later in TNE buffer (10 mM Tris pH 8.0, 150 mM NaCl, 1 mM EDTA, 1% NP-40, 10% glycerol); anti-FLAG magnetic beads overnight at 4 °C; immunoblot with anti-FLAG and anti-SLC38A1

B1: solute carrier family 38 member 1 (SLC38A1) (protein, UniProt Q9H2H9 1-487)
chain: MMHFKSGLELTELQNMTVPEDDNISNDSNDFTEVENGQINSKFISDRESRRSLTNSHLEKKKCDEYIPGTTSLGMSVFNLSNAIMGSGILGLAFALANTGILLFLVLLTSVTLLSIYSINLLLICSKETGCMVYEKLGEQVFGTTGKFVIFGATSLQNTGAMLSYLFIVKNELPSAIKFLMGKEETFSAWYVDGRVLVVIVTFGIILPLCLLKNLGYLGYTSGFSLSCMVFFLIVVIYKKFQIPCIVPELNSTISANSTNADTCTPKYVTFNSKTVYALPTIAFAFVCHPSVLPIYSELKDRSQKKMQMVSNISFFAMFVMYFLTAIFGYLTFYDNVQSDLLHKYQSKDDILILTVRLAVIVAVILTVPVLFFTVRSSLFELAKKTKFNLCRHTVVTCILLVVINLLVIFIPSMKDIFGVVGVTSANMLIFILPSSLYLKITDQDGDKGTQRIWAALFLGLGVLFSLVSIPLVIYDWACSSSSDEGH
With B1 the binding was “binds”.
